Results are given in words; binding and its absence hold for the method and conditions named. Binding seen in cells or lysates may run through a third protein. Some entries that bind do so weakly or less than the wild type.

Chains of the proteins cited; added tags and fusions are not shown.
UniProt P50750: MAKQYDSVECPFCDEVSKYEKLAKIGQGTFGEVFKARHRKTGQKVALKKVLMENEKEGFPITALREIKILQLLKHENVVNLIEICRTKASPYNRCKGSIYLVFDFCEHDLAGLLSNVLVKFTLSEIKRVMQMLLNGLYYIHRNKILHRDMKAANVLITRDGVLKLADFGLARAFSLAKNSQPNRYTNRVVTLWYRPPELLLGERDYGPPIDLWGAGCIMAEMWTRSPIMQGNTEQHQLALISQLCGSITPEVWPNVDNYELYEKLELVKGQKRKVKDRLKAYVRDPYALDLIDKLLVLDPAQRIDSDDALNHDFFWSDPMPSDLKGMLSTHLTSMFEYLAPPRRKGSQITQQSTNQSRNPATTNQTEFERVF
UniProt P23771: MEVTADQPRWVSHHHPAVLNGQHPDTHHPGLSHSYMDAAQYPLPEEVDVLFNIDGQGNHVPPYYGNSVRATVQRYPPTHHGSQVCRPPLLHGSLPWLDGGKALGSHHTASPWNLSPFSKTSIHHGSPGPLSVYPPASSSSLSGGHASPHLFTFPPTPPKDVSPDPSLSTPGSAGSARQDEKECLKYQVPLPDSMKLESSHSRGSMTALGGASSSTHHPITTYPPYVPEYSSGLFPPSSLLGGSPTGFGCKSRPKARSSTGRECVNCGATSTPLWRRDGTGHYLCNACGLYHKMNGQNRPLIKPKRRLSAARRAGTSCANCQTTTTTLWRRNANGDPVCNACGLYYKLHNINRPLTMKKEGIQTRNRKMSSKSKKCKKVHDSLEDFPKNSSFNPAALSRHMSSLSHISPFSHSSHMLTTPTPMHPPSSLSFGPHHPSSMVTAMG

The target of experiment [1] is cyclin dependent kinase 9 (CDK9), endogenous (human (endogenous in H9 and MyLa CD4)) (UniProt P50750). The experiment is described as follows: co-IP; endogenous proteins in H9 and MyLa CD4 cell lines; CDK9 immunoprecipitation, immunoblot (Fig. 4B). Background: Immunoblotting shows a protein as a band on a membrane.
Experiment [2] has as its target GATA-binding protein 3 (GATA-3), endogenous (human (endogenous in H9 and MyLa CD4)) (UniProt P23771). In words: co-IP; endogenous proteins in H9 and MyLa CD4 cell lines; GATA-3 immunoprecipitation, immunoblot (Fig. 4A).

Turning to “GATA-binding protein 3 (GATA-3), endogenous (from UniProt P23771 1-443)”, the binding result in experiment [1] is given as “binds”.
For the substance “cyclin dependent kinase 9 (CDK9), endogenous (from UniProt P50750 1-372) (enzyme)”, in experiment [2], the binding result is “binds”.

The values are drawn from paper PMC12783670.
